Experimental data reported in PubChem BioAssay AID330 (DTP/NCI, 2004).
The list is a part of this screen's results and no random one: it is rich in T/C values a quarter to a half above the control, in often repeated tests (any T/C) and in doses without a T/C. Further doses and runs are listed elsewhere. T/C is the treated group as % of the vehicle group. Some doses have a count of surviving animals in place of a T/C: the source holds a T/C of zero for them, seemingly a mark for toxic or unscored doses. Some survivor counts are full or nearly so, which does not show that the dose was tolerated: survival well below the control is almost never listed, so the zero probably covers shortened survival too. Counts of survivors are from the toxicity check (mostly the fifth day) where no day follows; animals may have died later. Schedules are NCI's codes, taken here to give the interval after Q, in days (D) or hours (H), and the number of doses after X. Some molecules as drawn cover several salts, stereoisomers or complexes of the source; a dose is that of the sample tested. Some entries hold several experiments; the results are listed from low to high. Marks such as (2×) stand for listed records that agree. For survival time, this PubChem deposit counts one and a half times the control or more as active, and values a quarter to a half above the control carry no call in these data; other NCI protocols may use other cut-offs. Some T/C values are followed by the survivors on the day toxicity was checked, most often the fifth; without a count, all were alive then.

System: P388 leukemia ip, CD2F1 mice, survival T/C
Experiment: NCI In Vivo Anticancer Drug Screen. Data for tumor model P388 Leukemia (intraperitoneal) in CD2F1 (CDF1) mice
Details: T/C endpoint: median survival time, higher T/C = longer survival
[1] = dose: 120.0 mg/kg/injection, schedule: Q01DX005 (iv), vehicle: water
[2] = dose: 200.0 mg/kg/injection, schedule: Q01DX009 (ip), vehicle: distilled water + Tween-80
[3] = dose: 400.0 mg/kg/injection, schedule: Q01DX009 (ip), vehicle: saline

Question: How did the T/C (dose: 100.0 mg/kg/injection, schedule: Q04DX003 (ip), vehicle: saline with Tween-80) turn out when `ClCC[N+]12CC[N+](CCCl)(CC1)C2` was run?
Answer: 130 and 136 % of control

Question: What about the T/C (dose: 120.0 mg/kg/injection, schedule: Q01DX001 (ip), vehicle: water) of the same compound?
Answer: 130 % of control

Question: And the T/C (dose: 120.0 mg/kg/injection, schedule: Q01DX001 (iv), vehicle: water)?
Answer: 130 % of control

Question: And the T/C (dose: 120.0 mg/kg/injection, schedule: Q01DX005 (iv), vehicle: clinical formulation)?
Answer: 130 and 135 % of control

Question: What about the T/C [1] of the same compound?
Answer: 132, 138, 145 % of control

Question: And the survivor count [1]?
Answer: 0 of 10 and 4 of 10

Question: And the T/C (dose: 120.0 mg/kg/injection, schedule: Q01DX005 (oral), vehicle: water)?
Answer: 133 % of control

Question: What about the T/C (dose: 120.0 mg/kg/injection, schedule: Q01DX009 (ip), vehicle: clinical formulation) of the same compound?
Answer: 129 % of control

Question: And the survivor count (dose: 120.0 mg/kg/injection, schedule: Q01DX009 (ip), vehicle: water)?
Answer: 0 of 10

Question: What about the T/C (dose: 120.0 mg/kg/injection, schedule: Q01DX009 (oral), vehicle: water) of the same compound?
Answer: 134 % of control

Question: What about the T/C (dose: 160.0 mg/kg/injection, schedule: Q01DX005 (ip), vehicle: water) of the same compound?
Answer: 144 % of control [6 of 8 alive]

Question: And the survivor count (dose: 160.0 mg/kg/injection, schedule: Q01DX009 (ip), vehicle: clinical formulation)?
Answer: 6 of 10

Question: What about the T/C (dose: 180.0 mg/kg/injection, schedule: Q01DX005 (iv), vehicle: clinical formulation) of the same compound?
Answer: 140 % of control [9 of 10 alive]

Question: What about the T/C (dose: 180.0 mg/kg/injection, schedule: Q01DX005 (iv), vehicle: water) of the same compound?
Answer: 138 [8 of 10 alive] and 146 % of control

Question: And the survivor count (dose: 200.0 mg/kg/injection, schedule: Q01DX005 (ip), vehicle: water)?
Answer: 1 of 8

Question: And the T/C [2]?
Answer: 104 % of control

Question: What about the survivor count [2] of the same compound?
Answer: 1 of 6 and 6 of 6

Question: And the survivor count (dose: 200.0 mg/kg/injection, schedule: Q01DX009 (ip), vehicle: saline with Tween-80)?
Answer: 6 of 6

Question: What about the survivor count (dose: 200.0 mg/kg/injection, schedule: Q01DX009 (ip), vehicle: saline) of the same compound?
Answer: 0 of 6 and 6 of 6

Question: And the T/C (dose: 200.0 mg/kg/injection, schedule: Q01DX009 (ip), vehicle: water, evaluated on day 30)?
Answer: 87 (2×), 94, 145, 225 % of control [5 of 6 alive]

Question: And the T/C (dose: 200.0 mg/kg/injection, schedule: Q01DX009 (ip), vehicle: water, evaluated on day 40)?
Answer: 236 % of control

Question: And the survivor count (dose: 200.0 mg/kg/injection, schedule: Q01DX009 (ip), vehicle: water)?
Answer: 0 of 6, 1 of 6 (2×), 3 of 6, 6 of 6 (2×)

Question: And the T/C (dose: 200.0 mg/kg/injection, schedule: Q01DX009 (oral), vehicle: saline with Tween-80)?
Answer: 138 % of control

Question: What about the T/C (dose: 200.0 mg/kg/injection, schedule: Q04DX003 (ip), vehicle: saline with Tween-80) of the same compound?
Answer: 138 % of control

Question: What about the T/C (dose: 240.0 mg/kg/injection, schedule: Q01DX001 (ip), vehicle: water) of the same compound?
Answer: 143 % of control [9 of 10 alive]

Question: What about the T/C (dose: 240.0 mg/kg/injection, schedule: Q01DX001 (iv), vehicle: water) of the same compound?
Answer: 126 % of control [7 of 10 alive]

Question: What about the survivor count (dose: 240.0 mg/kg/injection, schedule: Q01DX005 (ip), vehicle: water) of the same compound?
Answer: 0 of 10

Question: What about the survivor count (dose: 240.0 mg/kg/injection, schedule: Q01DX005 (iv), vehicle: water) of the same compound?
Answer: 0 of 10

Question: What about the survivor count (dose: 240.0 mg/kg/injection, schedule: Q01DX009 (ip), vehicle: clinical formulation) of the same compound?
Answer: 0 of 10 and 4 of 10

Question: And the survivor count (dose: 240.0 mg/kg/injection, schedule: Q01DX009 (ip), vehicle: water)?
Answer: 0 of 10, 1 of 10 (2×), 2 of 10

Question: And the T/C (dose: 266.0 mg/kg/injection, schedule: Q01DX001 (ip), vehicle: saline with Tween-80)?
Answer: 145 % of control

Question: What about the survivor count (dose: 400.0 mg/kg/injection, schedule: Q01DX005 (ip), vehicle: water) of the same compound?
Answer: 0 of 8

Question: And the survivor count (dose: 400.0 mg/kg/injection, schedule: Q01DX009 (ip), vehicle: distilled water + Tween-80)?
Answer: 0 of 6

Question: And the survivor count (dose: 400.0 mg/kg/injection, schedule: Q01DX009 (ip), vehicle: saline with Tween-80)?
Answer: 4 of 6

Question: And the T/C [3]?
Answer: 134 % of control

Question: And the survivor count [3]?
Answer: 0 of 6 and 3 of 6

Question: What about the survivor count (dose: 400.0 mg/kg/injection, schedule: Q01DX009 (ip), vehicle: water) of the same compound?
Answer: 0 of 6

Question: What about the survivor count (dose: 400.0 mg/kg/injection, schedule: Q01DX009 (oral), vehicle: saline with Tween-80) of the same compound?
Answer: 6 of 6

Question: What about the T/C (dose: 400.0 mg/kg/injection, schedule: Q04DX003 (ip), vehicle: distilled water + Tween-80) of the same compound?
Answer: 146 % of control

Question: And the T/C (dose: 400.0 mg/kg/injection, schedule: Q04DX003 (ip), vehicle: saline with Tween-80)?
Answer: 153, 156, 186, 268 % of control

Question: And the survivor count (dose: 480.0 mg/kg/injection, schedule: Q01DX001 (ip), vehicle: water)?
Answer: 3 of 10

Question: What about the survivor count (dose: 480.0 mg/kg/injection, schedule: Q01DX001 (iv), vehicle: water) of the same compound?
Answer: 2 of 10

Question: What about the T/C (dose: 480.0 mg/kg/injection, schedule: Q01DX001 (oral), vehicle: water) of the same compound?
Answer: 129 % of control

Question: What about the survivor count (dose: 480.0 mg/kg/injection, schedule: Q01DX005 (ip), vehicle: water) of the same compound?
Answer: 0 of 10

Question: And the survivor count (dose: 480.0 mg/kg/injection, schedule: Q01DX005 (iv), vehicle: water)?
Answer: 0 of 10

Question: And the survivor count (dose: 480.0 mg/kg/injection, schedule: Q01DX005 (oral), vehicle: water)?
Answer: 6 of 10

Question: What about the survivor count (dose: 480.0 mg/kg/injection, schedule: Q01DX009 (ip), vehicle: water) of the same compound?
Answer: 0 of 10

Question: What about the survivor count (dose: 480.0 mg/kg/injection, schedule: Q01DX009 (oral), vehicle: water) of the same compound?
Answer: 9 of 10

Question: What about the survivor count (dose: 600.0 mg/kg/injection, schedule: Q01DX001 (ip), vehicle: saline with Tween-80) of the same compound?
Answer: 6 of 6

Question: And the survivor count (dose: 600.0 mg/kg/injection, schedule: Q04DX003 (ip), vehicle: distilled water + Tween-80)?
Answer: 5 of 6

Question: What about the survivor count (dose: 600.0 mg/kg/injection, schedule: Q04DX003 (ip), vehicle: saline with Tween-80) of the same compound?
Answer: 6 of 6

Question: What about the survivor count (dose: 800.0 mg/kg/injection, schedule: Q01DX009 (oral), vehicle: saline with Tween-80) of the same compound?
Answer: 5 of 6

Question: And the survivor count (dose: 960.0 mg/kg/injection, schedule: Q01DX001 (oral), vehicle: water)?
Answer: 1 of 10
